Test results published in PMC9794714.
Results are given in words; binding and its absence hold for the method and conditions named. Binding seen in cells or lysates may run through a third protein. Some binding calls cover weakened binding; strength is not graded here. For some of these results: Where a sequence is shown, tags or fusion partners need not be part of it.

Protein sequences, listed by entry. Tags and fused reporters are not part of them.
UniProt P40763: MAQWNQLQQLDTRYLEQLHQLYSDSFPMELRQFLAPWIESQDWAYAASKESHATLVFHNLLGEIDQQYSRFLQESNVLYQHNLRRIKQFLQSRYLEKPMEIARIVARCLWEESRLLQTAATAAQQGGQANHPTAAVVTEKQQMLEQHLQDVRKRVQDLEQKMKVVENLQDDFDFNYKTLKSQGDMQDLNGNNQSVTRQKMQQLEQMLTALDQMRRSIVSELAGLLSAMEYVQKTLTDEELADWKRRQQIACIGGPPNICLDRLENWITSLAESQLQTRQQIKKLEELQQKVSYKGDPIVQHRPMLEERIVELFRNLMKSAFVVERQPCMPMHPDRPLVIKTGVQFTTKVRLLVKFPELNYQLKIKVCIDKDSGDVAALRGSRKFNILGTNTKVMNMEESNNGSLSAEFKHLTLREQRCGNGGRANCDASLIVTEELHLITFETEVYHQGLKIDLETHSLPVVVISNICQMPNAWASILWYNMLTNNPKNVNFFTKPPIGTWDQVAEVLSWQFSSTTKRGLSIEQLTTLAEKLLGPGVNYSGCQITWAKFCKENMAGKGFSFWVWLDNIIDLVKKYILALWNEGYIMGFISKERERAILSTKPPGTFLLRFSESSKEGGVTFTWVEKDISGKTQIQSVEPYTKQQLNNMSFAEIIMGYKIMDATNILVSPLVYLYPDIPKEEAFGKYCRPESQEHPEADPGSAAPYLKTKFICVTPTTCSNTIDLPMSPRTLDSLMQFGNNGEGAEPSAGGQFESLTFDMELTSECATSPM
UniProt Q13541: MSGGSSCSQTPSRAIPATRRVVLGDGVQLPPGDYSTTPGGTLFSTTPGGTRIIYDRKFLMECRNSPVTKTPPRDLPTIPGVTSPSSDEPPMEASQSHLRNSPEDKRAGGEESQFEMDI

How the values were obtained:
[1] = target: T1, HA-HERC5 (HECT and RLD domain containing E3 ubiquitin protein ligase 5) (UniProt Q9UII4); test: co-IP; A549 cells transfected with HA-HERC5 or vector, normal or glucose starvation for 9 h; immunoprecipitates with anti-HA antibody blotted
T1 sequence: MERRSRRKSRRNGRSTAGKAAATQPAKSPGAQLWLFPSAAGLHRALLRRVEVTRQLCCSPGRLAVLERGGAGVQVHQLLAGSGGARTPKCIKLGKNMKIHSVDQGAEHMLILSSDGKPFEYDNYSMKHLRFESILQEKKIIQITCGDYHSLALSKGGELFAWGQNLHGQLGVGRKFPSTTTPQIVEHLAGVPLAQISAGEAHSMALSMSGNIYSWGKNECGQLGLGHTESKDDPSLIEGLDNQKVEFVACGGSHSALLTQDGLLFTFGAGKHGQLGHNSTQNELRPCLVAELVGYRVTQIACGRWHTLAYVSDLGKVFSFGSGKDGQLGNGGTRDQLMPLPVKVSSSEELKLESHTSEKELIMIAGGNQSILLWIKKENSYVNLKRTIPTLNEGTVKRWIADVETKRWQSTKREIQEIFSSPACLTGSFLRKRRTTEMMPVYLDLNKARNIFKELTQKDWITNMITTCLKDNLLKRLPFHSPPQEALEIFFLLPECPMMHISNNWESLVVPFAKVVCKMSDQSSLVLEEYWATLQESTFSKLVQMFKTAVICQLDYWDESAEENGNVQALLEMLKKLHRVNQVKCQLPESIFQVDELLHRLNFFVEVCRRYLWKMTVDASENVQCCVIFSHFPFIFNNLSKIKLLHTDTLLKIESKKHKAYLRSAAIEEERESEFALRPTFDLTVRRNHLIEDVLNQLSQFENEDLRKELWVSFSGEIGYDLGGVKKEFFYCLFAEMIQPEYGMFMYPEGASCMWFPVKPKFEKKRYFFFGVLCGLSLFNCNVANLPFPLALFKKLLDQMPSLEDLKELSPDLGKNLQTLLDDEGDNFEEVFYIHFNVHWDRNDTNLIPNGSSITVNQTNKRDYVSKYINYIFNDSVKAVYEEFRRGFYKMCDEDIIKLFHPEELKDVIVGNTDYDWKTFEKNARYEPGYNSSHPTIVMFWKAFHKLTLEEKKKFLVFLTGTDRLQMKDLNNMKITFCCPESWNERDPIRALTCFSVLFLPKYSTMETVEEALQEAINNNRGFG

[2] = target: T2, Flag-PTPMT1 (protein tyrosine phosphatase localized to the Mitochondrion 1) (UniProt Q8WUK0); test: co-IP; A549 cells transfected with Flag-PTPMT1 or vector, normal or glucose starvation for 9 h; immunoprecipitation followed by western blot (antibody of the precipitation not named)
T2 sequence: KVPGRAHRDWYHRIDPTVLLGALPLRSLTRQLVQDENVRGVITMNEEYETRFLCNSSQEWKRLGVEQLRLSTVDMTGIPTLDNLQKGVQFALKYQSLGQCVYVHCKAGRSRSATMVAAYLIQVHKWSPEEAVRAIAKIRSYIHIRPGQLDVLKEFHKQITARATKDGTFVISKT

[3] = target: STAT3 (signal transducer and activator of transcription-3), endogenous in A549 cells (human (endogenous in A549)) (UniProt P40763); test: co-IP; endogenous proteins of A549 cells, normal or glucose starvation for 9 h; immunoprecipitation with anti-STAT3 antibody, western blot
[4] = target: Flag-4EBP1 (UniProt Q13541); test: co-IP; A549 cells transfected with Flag-4EBP1 or vector, normal or glucose starvation for 9 h; immunoprecipitation with anti-Flag antibody, western blot

Eukaryotic translation initiation factor 4E binding protein 1 (4EBP1), endogenous in A549 cells (from UniProt Q13541 1-118)
binding [1]: binds | binding [2]: binds | binding [3]: binds

STAT3 (signal transducer and activator of transcription-3), endogenous in A549 cells (from UniProt P40763 1-770)
binding [4]: binds
